{"sequences": {"note": "The chains behind the UniProt entries cited, without tags or fusion partners. Where a name states a change or a piece, a line headed by the entry shows the natural chain unless it says otherwise.", "UniProt P46019": "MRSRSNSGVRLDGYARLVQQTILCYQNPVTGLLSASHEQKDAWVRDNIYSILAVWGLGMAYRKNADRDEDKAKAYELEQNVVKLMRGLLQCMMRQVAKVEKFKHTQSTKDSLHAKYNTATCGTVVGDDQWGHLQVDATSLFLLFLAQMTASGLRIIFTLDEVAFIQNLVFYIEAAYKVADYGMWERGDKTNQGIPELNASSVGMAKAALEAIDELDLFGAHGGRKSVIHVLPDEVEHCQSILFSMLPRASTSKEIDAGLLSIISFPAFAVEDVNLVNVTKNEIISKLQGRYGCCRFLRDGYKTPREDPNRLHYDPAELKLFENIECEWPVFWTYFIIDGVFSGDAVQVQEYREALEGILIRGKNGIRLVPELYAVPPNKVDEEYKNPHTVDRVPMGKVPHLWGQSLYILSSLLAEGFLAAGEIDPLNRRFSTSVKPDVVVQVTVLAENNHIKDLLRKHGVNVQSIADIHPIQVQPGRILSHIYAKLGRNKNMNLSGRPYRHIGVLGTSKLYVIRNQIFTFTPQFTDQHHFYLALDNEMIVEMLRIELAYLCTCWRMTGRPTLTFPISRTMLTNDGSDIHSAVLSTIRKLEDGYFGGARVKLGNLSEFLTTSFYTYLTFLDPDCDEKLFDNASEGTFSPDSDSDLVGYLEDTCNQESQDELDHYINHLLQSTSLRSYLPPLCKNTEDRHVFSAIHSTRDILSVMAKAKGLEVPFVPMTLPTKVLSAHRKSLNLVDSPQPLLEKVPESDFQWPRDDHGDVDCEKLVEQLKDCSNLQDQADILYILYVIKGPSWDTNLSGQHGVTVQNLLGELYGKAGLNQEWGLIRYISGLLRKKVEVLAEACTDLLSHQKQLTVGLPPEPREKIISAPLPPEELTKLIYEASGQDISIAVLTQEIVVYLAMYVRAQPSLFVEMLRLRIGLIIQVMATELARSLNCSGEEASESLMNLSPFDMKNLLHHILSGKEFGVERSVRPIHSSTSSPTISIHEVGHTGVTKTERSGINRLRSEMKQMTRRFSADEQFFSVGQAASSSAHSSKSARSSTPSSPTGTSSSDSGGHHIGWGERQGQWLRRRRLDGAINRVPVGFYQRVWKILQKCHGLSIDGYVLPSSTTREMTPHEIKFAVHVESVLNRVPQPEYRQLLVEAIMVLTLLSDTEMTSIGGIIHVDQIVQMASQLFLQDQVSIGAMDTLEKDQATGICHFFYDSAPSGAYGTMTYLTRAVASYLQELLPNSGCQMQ", "UniProt Q9NRX4": "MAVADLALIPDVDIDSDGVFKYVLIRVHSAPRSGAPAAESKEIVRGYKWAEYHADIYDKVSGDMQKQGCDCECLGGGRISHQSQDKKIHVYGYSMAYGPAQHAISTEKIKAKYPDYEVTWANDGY", "UniProt Q8IWS0": "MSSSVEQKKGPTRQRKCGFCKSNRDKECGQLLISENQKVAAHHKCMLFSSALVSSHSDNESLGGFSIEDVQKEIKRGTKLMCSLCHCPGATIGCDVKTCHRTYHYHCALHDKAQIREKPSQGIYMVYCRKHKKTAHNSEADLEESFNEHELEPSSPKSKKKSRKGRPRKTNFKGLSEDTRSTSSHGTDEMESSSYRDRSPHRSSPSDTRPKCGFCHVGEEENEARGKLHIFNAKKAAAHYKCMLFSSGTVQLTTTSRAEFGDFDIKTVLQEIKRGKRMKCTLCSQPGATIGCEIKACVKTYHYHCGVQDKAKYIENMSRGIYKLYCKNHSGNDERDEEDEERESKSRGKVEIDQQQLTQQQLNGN", "UniProt P12955": "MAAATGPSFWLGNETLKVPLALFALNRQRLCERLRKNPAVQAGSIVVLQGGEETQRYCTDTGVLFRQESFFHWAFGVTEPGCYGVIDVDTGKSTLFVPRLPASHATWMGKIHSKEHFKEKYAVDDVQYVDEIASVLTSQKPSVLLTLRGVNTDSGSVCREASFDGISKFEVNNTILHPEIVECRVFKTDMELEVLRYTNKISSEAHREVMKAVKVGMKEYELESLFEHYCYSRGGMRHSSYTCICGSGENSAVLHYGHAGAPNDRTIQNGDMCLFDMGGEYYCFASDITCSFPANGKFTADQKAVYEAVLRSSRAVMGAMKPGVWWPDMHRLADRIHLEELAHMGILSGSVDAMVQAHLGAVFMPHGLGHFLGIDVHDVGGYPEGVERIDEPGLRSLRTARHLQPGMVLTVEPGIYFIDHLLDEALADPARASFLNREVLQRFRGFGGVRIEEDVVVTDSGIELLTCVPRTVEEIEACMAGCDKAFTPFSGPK", "UniProt O95394": "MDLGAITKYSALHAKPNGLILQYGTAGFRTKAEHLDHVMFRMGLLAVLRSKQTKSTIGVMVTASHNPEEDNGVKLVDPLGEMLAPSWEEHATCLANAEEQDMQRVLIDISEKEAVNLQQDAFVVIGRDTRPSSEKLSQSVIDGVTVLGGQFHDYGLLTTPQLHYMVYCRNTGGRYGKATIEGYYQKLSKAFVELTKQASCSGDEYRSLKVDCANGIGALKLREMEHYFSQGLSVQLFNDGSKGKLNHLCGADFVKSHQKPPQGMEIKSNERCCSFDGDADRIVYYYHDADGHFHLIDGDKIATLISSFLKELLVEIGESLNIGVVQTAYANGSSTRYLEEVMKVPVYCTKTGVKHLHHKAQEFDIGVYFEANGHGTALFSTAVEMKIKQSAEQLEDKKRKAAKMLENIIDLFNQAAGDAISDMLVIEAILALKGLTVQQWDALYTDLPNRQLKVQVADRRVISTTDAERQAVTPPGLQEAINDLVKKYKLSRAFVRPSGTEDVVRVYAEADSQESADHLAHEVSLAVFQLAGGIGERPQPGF", "UniProt Q16875": "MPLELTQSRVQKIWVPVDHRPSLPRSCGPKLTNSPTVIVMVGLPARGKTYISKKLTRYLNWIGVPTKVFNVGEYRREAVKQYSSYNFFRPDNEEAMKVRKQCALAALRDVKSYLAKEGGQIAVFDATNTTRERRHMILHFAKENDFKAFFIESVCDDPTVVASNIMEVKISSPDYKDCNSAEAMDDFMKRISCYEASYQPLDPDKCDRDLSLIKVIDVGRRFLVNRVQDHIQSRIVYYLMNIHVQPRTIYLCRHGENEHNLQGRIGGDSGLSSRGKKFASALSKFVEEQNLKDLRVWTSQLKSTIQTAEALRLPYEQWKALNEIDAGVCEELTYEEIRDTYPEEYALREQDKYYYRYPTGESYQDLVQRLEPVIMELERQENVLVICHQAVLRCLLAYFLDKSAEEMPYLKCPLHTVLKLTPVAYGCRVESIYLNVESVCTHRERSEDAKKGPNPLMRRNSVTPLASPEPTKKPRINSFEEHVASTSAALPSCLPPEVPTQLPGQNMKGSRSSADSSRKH", "UniProt P53609, whole entry, looked up": "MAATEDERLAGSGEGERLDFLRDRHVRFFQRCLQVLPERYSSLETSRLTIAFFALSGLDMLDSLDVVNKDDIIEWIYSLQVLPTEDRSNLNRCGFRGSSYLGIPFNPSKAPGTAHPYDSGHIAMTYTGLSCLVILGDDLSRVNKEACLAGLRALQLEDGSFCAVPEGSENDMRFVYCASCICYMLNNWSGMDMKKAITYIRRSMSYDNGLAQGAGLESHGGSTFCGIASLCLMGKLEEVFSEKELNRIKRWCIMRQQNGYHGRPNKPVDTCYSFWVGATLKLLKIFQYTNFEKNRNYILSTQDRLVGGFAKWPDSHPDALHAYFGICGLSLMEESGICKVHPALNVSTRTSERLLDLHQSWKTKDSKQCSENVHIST", "UniProt P36871": "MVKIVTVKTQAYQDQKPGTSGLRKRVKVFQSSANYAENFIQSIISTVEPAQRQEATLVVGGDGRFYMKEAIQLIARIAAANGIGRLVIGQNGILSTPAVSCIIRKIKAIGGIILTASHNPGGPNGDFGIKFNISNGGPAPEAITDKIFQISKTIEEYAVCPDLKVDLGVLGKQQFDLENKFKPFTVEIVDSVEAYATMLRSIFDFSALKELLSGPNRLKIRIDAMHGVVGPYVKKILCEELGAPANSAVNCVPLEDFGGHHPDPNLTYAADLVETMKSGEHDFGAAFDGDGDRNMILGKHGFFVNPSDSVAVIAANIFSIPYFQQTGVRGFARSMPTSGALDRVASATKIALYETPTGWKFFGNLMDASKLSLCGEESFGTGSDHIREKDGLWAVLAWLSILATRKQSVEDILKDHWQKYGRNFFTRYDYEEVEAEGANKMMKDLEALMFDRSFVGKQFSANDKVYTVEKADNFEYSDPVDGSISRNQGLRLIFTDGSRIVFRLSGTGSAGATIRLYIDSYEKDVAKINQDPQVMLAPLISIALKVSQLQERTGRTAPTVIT", "UniProt P52209": "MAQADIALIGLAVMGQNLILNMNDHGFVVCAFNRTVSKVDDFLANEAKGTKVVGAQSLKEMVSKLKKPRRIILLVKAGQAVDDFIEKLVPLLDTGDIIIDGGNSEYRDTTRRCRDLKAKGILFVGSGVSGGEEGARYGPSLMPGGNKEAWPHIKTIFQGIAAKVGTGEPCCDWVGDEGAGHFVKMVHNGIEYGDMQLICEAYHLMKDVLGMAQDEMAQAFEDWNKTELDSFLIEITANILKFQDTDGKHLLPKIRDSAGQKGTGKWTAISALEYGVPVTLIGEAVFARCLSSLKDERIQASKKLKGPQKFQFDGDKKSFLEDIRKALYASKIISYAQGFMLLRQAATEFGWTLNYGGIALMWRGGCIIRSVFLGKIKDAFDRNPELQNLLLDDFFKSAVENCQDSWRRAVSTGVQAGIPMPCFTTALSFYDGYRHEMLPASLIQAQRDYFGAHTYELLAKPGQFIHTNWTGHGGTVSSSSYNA", "UniProt Q96GD0": "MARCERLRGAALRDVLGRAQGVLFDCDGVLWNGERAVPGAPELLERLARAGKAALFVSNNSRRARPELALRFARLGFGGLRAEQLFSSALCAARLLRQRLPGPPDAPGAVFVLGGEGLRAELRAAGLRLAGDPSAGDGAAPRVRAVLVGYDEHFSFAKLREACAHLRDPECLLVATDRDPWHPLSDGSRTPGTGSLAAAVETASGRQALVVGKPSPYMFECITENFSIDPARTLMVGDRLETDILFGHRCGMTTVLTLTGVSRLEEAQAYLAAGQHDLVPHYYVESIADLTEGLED", "UniProt P35232": "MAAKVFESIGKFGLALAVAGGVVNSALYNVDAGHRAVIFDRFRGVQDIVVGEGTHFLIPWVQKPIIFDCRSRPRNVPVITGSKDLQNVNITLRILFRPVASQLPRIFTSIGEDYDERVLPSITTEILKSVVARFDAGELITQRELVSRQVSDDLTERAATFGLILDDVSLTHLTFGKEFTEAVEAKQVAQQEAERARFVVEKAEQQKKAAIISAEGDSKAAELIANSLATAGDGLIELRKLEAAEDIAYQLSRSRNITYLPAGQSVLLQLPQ", "UniProt O43175": "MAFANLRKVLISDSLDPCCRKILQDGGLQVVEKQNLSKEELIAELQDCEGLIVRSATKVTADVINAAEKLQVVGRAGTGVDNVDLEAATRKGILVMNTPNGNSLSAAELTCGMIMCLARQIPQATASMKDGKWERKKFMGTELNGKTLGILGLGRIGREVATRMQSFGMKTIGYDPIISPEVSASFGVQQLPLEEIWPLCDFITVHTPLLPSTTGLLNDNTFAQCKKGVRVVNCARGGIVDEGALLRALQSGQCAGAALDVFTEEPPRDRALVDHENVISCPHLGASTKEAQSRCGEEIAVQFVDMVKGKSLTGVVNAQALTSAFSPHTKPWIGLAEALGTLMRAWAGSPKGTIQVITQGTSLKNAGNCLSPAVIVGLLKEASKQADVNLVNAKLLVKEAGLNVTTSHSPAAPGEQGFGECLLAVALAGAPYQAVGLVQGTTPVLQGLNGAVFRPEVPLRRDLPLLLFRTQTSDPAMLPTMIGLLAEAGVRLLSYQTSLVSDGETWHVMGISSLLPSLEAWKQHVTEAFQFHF", "UniProt Q92643": "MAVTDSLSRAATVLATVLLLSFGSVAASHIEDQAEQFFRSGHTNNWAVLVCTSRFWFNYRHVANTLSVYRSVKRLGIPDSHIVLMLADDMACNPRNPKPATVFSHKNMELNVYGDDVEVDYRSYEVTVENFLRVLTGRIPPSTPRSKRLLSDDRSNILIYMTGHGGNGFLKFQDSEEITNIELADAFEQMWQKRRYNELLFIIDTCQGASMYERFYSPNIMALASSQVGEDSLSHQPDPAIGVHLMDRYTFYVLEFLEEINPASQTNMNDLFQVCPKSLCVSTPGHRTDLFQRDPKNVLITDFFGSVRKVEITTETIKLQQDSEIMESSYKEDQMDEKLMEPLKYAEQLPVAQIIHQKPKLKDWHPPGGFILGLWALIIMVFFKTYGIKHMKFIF", "UniProt O00764": "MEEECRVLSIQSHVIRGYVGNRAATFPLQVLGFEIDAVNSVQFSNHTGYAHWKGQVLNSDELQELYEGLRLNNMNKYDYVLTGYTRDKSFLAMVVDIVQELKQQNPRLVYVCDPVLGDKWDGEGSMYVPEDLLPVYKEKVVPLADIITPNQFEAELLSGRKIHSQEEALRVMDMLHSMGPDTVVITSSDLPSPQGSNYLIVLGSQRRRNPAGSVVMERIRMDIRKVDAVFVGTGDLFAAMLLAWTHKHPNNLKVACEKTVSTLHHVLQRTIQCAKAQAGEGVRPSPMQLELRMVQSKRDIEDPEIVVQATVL"}, "source": "the supplement of paper PMC12067093", "about": "“Discovery and optimisation of a covalent ligand for TRIM25 and its application to targeted protein ubiquitination” (Chemical Science, 2025)", "compound": "CC1Cc2ccccc2N1C(=O)C1CCCN(C1)C(=O)CCl (mixture of isomers) [TRIM25 ligand 11 (diastereomer mixture)]", "test": "probe-labelled cysteine peptide fold change vs DMSO (competition) (log2 fold change); higher = less target engagement (more negative = stronger competition)", "details": "THP-1, incubation time: 4 h", "note": "The list shows a part of the results.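 Further: competitive chemoproteomic profiling in live THP-1 cells with an iodoacetamide desthiobiotin (IA-DTB) probe, comparing probe-labelled peptide intensities in compound-treated cells against DMSO-treated controls.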", "data": [{"target": "PHKA2_P46019_238_SVIHVLPDEVEHCQSILFSMLPR (UniProt P46019)", "values": [{"measurement": "probe-labelled cysteine peptide fold change", "setting": "10 µM", "result": -0.00236}, {"measurement": "probe-labelled cysteine peptide fold change", "setting": "50 µM", "result": -0.205}]}, {"target": "PHPT1_Q9NRX4_69_QGCDCECLGGGR (UniProt Q9NRX4)", "values": [{"measurement": "probe-labelled cysteine peptide fold change", "setting": "10 µM", "result": -0.148}, {"measurement": "probe-labelled cysteine peptide fold change", "setting": "50 µM", "result": -0.039}]}, {"target": "PHF6_Q8IWS0_212+215_CGFCHVGEEENEAR (UniProt Q8IWS0)", "values": [{"measurement": "probe-labelled cysteine peptide fold change", "setting": "10 µM", "result": -0.0628}, {"measurement": "probe-labelled cysteine peptide fold change", "setting": "50 µM", "result": -0.000425}]}, {"target": "PHF5A_Q7RTV0_33_CVICDSYVRPCTLVR (UniProt Q7RTV0)", "values": [{"measurement": "probe-labelled cysteine peptide fold change", "setting": "10 µM", "result": -0.0145}, {"measurement": "probe-labelled cysteine peptide fold change", "setting": "50 µM", "result": -0.0268}]}, {"target": "PGM2_Q96G03_573_YYAELCAPPGNSDPEQLKK (UniProt Q96G03)", "values": [{"measurement": "probe-labelled cysteine peptide fold change", "setting": "10 µM", "result": -0.192}, {"measurement": "probe-labelled cysteine peptide fold change", "setting": "50 µM", "result": -0.126}]}, {"target": "PEPD_P12955_58_YCTDTGVLFR (UniProt P12955)", "values": [{"measurement": "probe-labelled cysteine peptide fold change", "setting": "10 µM", "result": -0.000997}, {"measurement": "probe-labelled cysteine peptide fold change", "setting": "50 µM", "result": 0.108}]}, {"target": "PGM3_O95394_249_LNHLCGADFVK (UniProt O95394)", "values": [{"measurement": "probe-labelled cysteine peptide fold change", "setting": "10 µM", "result": -0.0509}, {"measurement": "probe-labelled cysteine peptide fold change", "setting": "50 µM", "result": 0.106}]}, {"target": "PFKP_Q01813_360_LPLMECVQMTQDVQK (UniProt Q01813)", "values": [{"measurement": "probe-labelled cysteine peptide fold change", "setting": "10 µM", "result": -0.0935}, {"measurement": "probe-labelled cysteine peptide fold change", "setting": "50 µM", "result": -0.109}]}, {"target": "PFKFB3_Q16875_155_AFFIESVCDDPTVVASNIMEVK (UniProt Q16875)", "values": [{"measurement": "probe-labelled cysteine peptide fold change", "setting": "10 µM", "result": -0.0739}, {"measurement": "probe-labelled cysteine peptide fold change", "setting": "50 µM", "result": -0.0439}]}, {"target": "PFKL_P17858_114_RAAAYNLVQHGITNLCVIGGDGSLTGANIFR (UniProt P17858)", "values": [{"measurement": "probe-labelled cysteine peptide fold change", "setting": "10 µM", "result": 0.171}, {"measurement": "probe-labelled cysteine peptide fold change", "setting": "50 µM", "result": 0.455}]}, {"target": "PGGT1B_P53609_162_ALQLEDGSFCAVPEGSENDMR (UniProt P53609)", "values": [{"measurement": "probe-labelled cysteine peptide fold change", "setting": "10 µM", "result": -0.27}, {"measurement": "probe-labelled cysteine peptide fold change", "setting": "50 µM", "result": -0.326}]}, {"target": "PFKP_Q01813_718_FTTDDSICVLGISKR (UniProt Q01813)", "values": [{"measurement": "probe-labelled cysteine peptide fold change", "setting": "10 µM", "result": -0.317}, {"measurement": "probe-labelled cysteine peptide fold change", "setting": "50 µM", "result": -0.314}]}, {"target": "PGM1_P36871_101_LVIGQNGILSTPAVSCIIR (UniProt P36871)", "values": [{"measurement": "probe-labelled cysteine peptide fold change", "setting": "10 µM", "result": -0.133}, {"measurement": "probe-labelled cysteine peptide fold change", "setting": "50 µM", "result": 0.0849}]}, {"target": "PHF2_O75151_869_NSVDLDDYEEEQDHLDACFK (UniProt O75151)", "values": [{"measurement": "probe-labelled cysteine peptide fold change", "setting": "10 µM", "result": 0.259}, {"measurement": "probe-labelled cysteine peptide fold change", "setting": "50 µM", "result": 0.295}]}, {"target": "PGP_A6NDG6_193_YLQQPGCLLVGTNMDNR (UniProt A6NDG6)", "values": [{"measurement": "probe-labelled cysteine peptide fold change", "setting": "10 µM", "result": -0.109}, {"measurement": "probe-labelled cysteine peptide fold change", "setting": "50 µM", "result": 0.173}]}, {"target": "PHRF1_Q9P1Y6_962_TVTCVTVVEPEAPPSPDVLQAATHR (UniProt Q9P1Y6)", "values": [{"measurement": "probe-labelled cysteine peptide fold change", "setting": "10 µM", "result": -0.256}, {"measurement": "probe-labelled cysteine peptide fold change", "setting": "50 µM", "result": -0.149}]}, {"target": "PHC3_Q8NDX5_808_FCTMSCAK (UniProt Q8NDX5)", "values": [{"measurement": "probe-labelled cysteine peptide fold change", "setting": "10 µM", "result": -0.0422}, {"measurement": "probe-labelled cysteine peptide fold change", "setting": "50 µM", "result": -0.0471}]}, {"target": "PGD_P52209_289_CLSSLKDER (UniProt P52209)", "values": [{"measurement": "probe-labelled cysteine peptide fold change", "setting": "10 µM", "result": -0.322}, {"measurement": "probe-labelled cysteine peptide fold change", "setting": "50 µM", "result": -0.0611}]}, {"target": "PGGT1B_P53609_147_EACLAGLR (UniProt P53609)", "values": [{"measurement": "probe-labelled cysteine peptide fold change", "setting": "10 µM", "result": 0.00749}, {"measurement": "probe-labelled cysteine peptide fold change", "setting": "50 µM", "result": 0.224}]}, {"target": "PDXP_Q96GD0_91_AEQLFSSALCAAR (UniProt Q96GD0)", "values": [{"measurement": "probe-labelled cysteine peptide fold change", "setting": "10 µM", "result": -0.043}, {"measurement": "probe-labelled cysteine peptide fold change", "setting": "50 µM", "result": 0.0581}]}, {"target": "PFAS_O15067_606_IVLVDDRECPVR (UniProt O15067)", "values": [{"measurement": "probe-labelled cysteine peptide fold change", "setting": "10 µM", "result": 0.275}, {"measurement": "probe-labelled cysteine peptide fold change", "setting": "50 µM", "result": 0.151}]}, {"target": "PFKFB3_Q16875_102_QCALAALR (UniProt Q16875)", "values": [{"measurement": "probe-labelled cysteine peptide fold change", "setting": "10 µM", "result": -0.0705}, {"measurement": "probe-labelled cysteine peptide fold change", "setting": "50 µM", "result": -0.162}]}, {"target": "PHF8_Q9UPP1_86_AADIDLYHCPNCEVLHGPSIMK (UniProt Q9UPP1)", "values": [{"measurement": "probe-labelled cysteine peptide fold change", "setting": "10 µM", "result": -0.0305}, {"measurement": "probe-labelled cysteine peptide fold change", "setting": "50 µM", "result": -0.0733}]}, {"target": "PGM1_P36871_374_LSLCGEESFGTGSDHIR (UniProt P36871)", "values": [{"measurement": "probe-labelled cysteine peptide fold change", "setting": "10 µM", "result": -0.00372}, {"measurement": "probe-labelled cysteine peptide fold change", "setting": "50 µM", "result": 0.0469}]}, {"target": "PFAS_O15067_606_RIVLVDDRECPVR (UniProt O15067)", "values": [{"measurement": "probe-labelled cysteine peptide fold change", "setting": "10 µM", "result": -0.116}, {"measurement": "probe-labelled cysteine peptide fold change", "setting": "50 µM", "result": -0.0654}]}, {"target": "PGAM5_Q96HS1_229_ADARQEEDSYEIFICHANVIR (UniProt Q96HS1)", "values": [{"measurement": "probe-labelled cysteine peptide fold change", "setting": "10 µM", "result": -0.175}, {"measurement": "probe-labelled cysteine peptide fold change", "setting": "50 µM", "result": 0.0271}]}, {"target": "PEX6_Q13608_358_VVQEGDVLCVPTIGQVEILEGSPEK (UniProt Q13608)", "values": [{"measurement": "probe-labelled cysteine peptide fold change", "setting": "10 µM", "result": -0.357}, {"measurement": "probe-labelled cysteine peptide fold change", "setting": "50 µM", "result": -0.37}]}, {"target": "PHF14_O94880_471_AYFHVTCAQK (UniProt O94880)", "values": [{"measurement": "probe-labelled cysteine peptide fold change", "setting": "10 µM", "result": 0.0464}, {"measurement": "probe-labelled cysteine peptide fold change", "setting": "50 µM", "result": 0.0958}]}, {"target": "PI4KA_P42356_58_LLCMCPVDFHGIFQLDER (UniProt P42356)", "values": [{"measurement": "probe-labelled cysteine peptide fold change", "setting": "10 µM", "result": -0.0539}, {"measurement": "probe-labelled cysteine peptide fold change", "setting": "50 µM", "result": -0.0902}]}, {"target": "PGD_P52209_199_MVHNGIEYGDMQLICEAYHLMK (UniProt P52209)", "values": [{"measurement": "probe-labelled cysteine peptide fold change", "setting": "10 µM", "result": 0.096}, {"measurement": "probe-labelled cysteine peptide fold change", "setting": "50 µM", "result": -0.0225}]}, {"target": "PHF6_Q8IWS0_128_EKPSQGIYMVYCR (UniProt Q8IWS0)", "values": [{"measurement": "probe-labelled cysteine peptide fold change", "setting": "10 µM", "result": -0.0114}, {"measurement": "probe-labelled cysteine peptide fold change", "setting": "50 µM", "result": -0.0796}]}, {"target": "PHB_P35232_69_GVQDIVVGEGTHFLIPWVQKPIIFDCR (UniProt P35232)", "values": [{"measurement": "probe-labelled cysteine peptide fold change", "setting": "10 µM", "result": 0.115}, {"measurement": "probe-labelled cysteine peptide fold change", "setting": "50 µM", "result": -0.0805}]}, {"target": "PHGDH_O43175_254_ALQSGQCAGAALDVFTEEPPRDR (UniProt O43175)", "values": [{"measurement": "probe-labelled cysteine peptide fold change", "setting": "10 µM", "result": -0.162}, {"measurement": "probe-labelled cysteine peptide fold change", "setting": "50 µM", "result": 0.033}]}, {"target": "PIGK_Q92643_280_SLCVSTPGHR (UniProt Q92643)", "values": [{"measurement": "probe-labelled cysteine peptide fold change", "setting": "10 µM", "result": -0.0253}, {"measurement": "probe-labelled cysteine peptide fold change", "setting": "50 µM", "result": -0.052}]}, {"target": "PHPT1_Q9NRX4_71_QGCDCECLGGGR (UniProt Q9NRX4)", "values": [{"measurement": "probe-labelled cysteine peptide fold change", "setting": "10 µM", "result": -0.0941}, {"measurement": "probe-labelled cysteine peptide fold change", "setting": "50 µM", "result": 0.0226}]}, {"target": "PDXK_O00764_112_LVYVCDPVLGDK (UniProt O00764)", "values": [{"measurement": "probe-labelled cysteine peptide fold change", "setting": "10 µM", "result": 0.194}, {"measurement": "probe-labelled cysteine peptide fold change", "setting": "50 µM", "result": 0.079}]}, {"target": "PHGDH_O43175_48_EELIAELQDCEGLIVR (UniProt O43175)", "values": [{"measurement": "probe-labelled cysteine peptide fold change", "setting": "10 µM", "result": -0.075}, {"measurement": "probe-labelled cysteine peptide fold change", "setting": "50 µM", "result": 0.00347}]}, {"target": "PIGT_Q969N2_195_LLPCSSK (UniProt Q969N2)", "values": [{"measurement": "probe-labelled cysteine peptide fold change", "setting": "10 µM", "result": 0.0551}, {"measurement": "probe-labelled cysteine peptide fold change", "setting": "50 µM", "result": 0.0931}]}, {"target": "PFKP_Q01813_343_MGVEAVIALLEATPDTPACVVSLNGNHAVR (UniProt Q01813)", "values": [{"measurement": "probe-labelled cysteine peptide fold change", "setting": "10 µM", "result": -0.264}, {"measurement": "probe-labelled cysteine peptide fold change", "setting": "50 µM", "result": -0.229}]}, {"target": "PHGDH_O43175_281_ALVDHENVISCPHLGASTK (UniProt O43175)", "values": [{"measurement": "probe-labelled cysteine peptide fold change", "setting": "10 µM", "result": 0.0302}, {"measurement": "probe-labelled cysteine peptide fold change", "setting": "50 µM", "result": -0.103}]}, {"target": "PHLPP1_O60346_914_NRLENVPEWVCESR (UniProt O60346)", "values": [{"measurement": "probe-labelled cysteine peptide fold change", "setting": "10 µM", "result": 0.0596}, {"measurement": "probe-labelled cysteine peptide fold change", "setting": "50 µM", "result": 0.0448}]}, {"target": "PFAS_O15067_351_GAHVVAGTAGYCFGNLHIPGYNLPWEDPSFQYPGNFAR (UniProt O15067)", "values": [{"measurement": "probe-labelled cysteine peptide fold change", "setting": "10 µM", "result": -0.161}, {"measurement": "probe-labelled cysteine peptide fold change", "setting": "50 µM", "result": -0.105}]}]}
